Values of other authors, collected in patent US20040248765A1, “Tumour targeting prodrugs activated by metallo matrixproteinases” (priority 2001, published 2004).

Details: man; cited from earlier work

SMILES: COc1cccc2c1C(=O)c1c(O)c3c(c(O)c1C2=O)C[C@@](O)(C(=O)CO)C[C@@H]3O[C@H]1C[C@H](N)[C@H](O)[C@H](C)O1 [doxorubicin]
- maximum tolerated dose: 1 to 2 mg/kg
